Experimental data taken from patent publication US8202890B2, “Pest control agent” (Meiji Seika Pharma Co., Ltd., priority 2006, dated 2012).
Some results were stated once for a whole list of compounds, not compound by compound.

System: Trigonotylus caelestialium
Experiment: Pesticidal effect against Trigonotylus caelestialium (wheat seedling immersion)
Format: in vivo
Conditions: 100 ppm, second instar larvae, wheat seedling immersed 30 seconds, 3 days after treatment, 25° C.

Structure (SMILES) | death rate
CC1(COC(=O)C2CC2)C2CC(=O)[C@@]3(C)Oc4cc(-c5cccnc5)oc(=O)c4[C@H](O)C3[C@@]2(C)CC[C@@H]1OC(=O)C1CC1 (some centres unmarked) [Compound 1] | not less than 80%
CC1(COC(=O)C2CC2)C2CC[C@@]3(C)Oc4cc(-c5cccnc5)oc(=O)c4[C@H](O)C3[C@@]2(C)CC[C@@H]1OC(=O)C1CC1 (some centres unmarked) [Compound 2] | not less than 80%
